Results reported in PubChem BioAssay AID624297 (National Center for Advancing Translational Sciences (NCATS), 2012).
The whole screen tested about 340,000 compounds, of which about 6,200 (1.8%) were called active. The shares of active, inactive and inconclusive entries below differ from those in the screen. The call rests on the fitted dose curve; in most records, active means well fitted activation curve with a large enough effect; inconclusive means small, poorly fitted or top-dose-only effect; inactive means no such curve, though single readings can be large or run the other way. Where the call is inconclusive, the potency comes from a doubtful curve fit.

assay: A quantitative high throughput screen for small molecules that induce DNA re-replication in SW480 colon adenocarcinoma cells.; further: nearly all actives have a fitted effect of over 55% in size; on re-replication activation: % of control where 0% means no effect; conditions: Hoechst DNA content imaging, 48 h; re-replication activation: at 46.1 µM (top of the series) unless noted
Outline: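 Treated cells incubate 48 hr (37 C, 5% CO2), are stained 40 min with Hoechst, and nuclear fluorescence is enumerated; a rise in nuclei with high DNA signal marks re-replication.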
Potency means the concentration at half of the fitted maximal effect.

Row | Structure (SMILES) | Potency | re-replication activation
1 | COc1ccc(C2=NOC(C(=O)NCc3cccnc3)C2)cc1OC (stereo not given) | inconclusive: 29.1 µM [activator, single point] | 
2 | CN(C)Cc1ccccc1Sc1cccc2ccccc12 | inconclusive: 25.9 µM [activator, single point] | 
3 | Cc1cc(N2CCN(C)CC2)nc2ccc(NC(=O)CCC(=O)NCCC(C)C)cc12 | inconclusive: 32.6 µM [activator, single point] | 
4 | Cc1ccc(NC(=S)NCCN(C2CCCCC2)C2CCCC2)cc1C | inconclusive: 29.1 µM [activator, single point] | 
5 | CCN(CC)S(=O)(=O)c1cc(NC(=O)C(C)Nc2ccccc2N2CCOCC2)ccc1C (stereo not given) |  | inactive: 4.87%
6 | Cc1cc(Cl)c2oc(C(=O)N(C)Cc3cc(C)[nH]n3)c(C)c2c1 |  | inactive: 0.0673%
7 | COc1ccc(-c2cc(C(=O)Nc3ccccc3O)c3ccccc3n2)cc1OC | inconclusive: 18.4 µM [activator, partial curve, poor fit] | 
8 | COc1cc(NS(=O)(=O)c2ccc(N/C=C(\C#N)c3nc4ccccc4o3)cc2)nc(OC)n1 |  | inactive: -4.91%
9 | Cc1ccc(Cn2nc(C)c(NC(=O)c3cc(C)no3)c2C)cc1 |  | inactive: 3.24%
10 | O=C(O)CCc1ccc(-c2ccc(Br)cc2)o1 | active: 5.8 µM | 
11 | Cc1ccc(C)c(S(=O)(=O)NCCC(=O)N2CCCC(C(N)=O)C2)c1 (stereo not given) |  | inactive: 12.3%
12 | O=C(Nc1ccccn1)c1cc2ccccc2o1 |  | inactive: 0.806%
13 | CC(NC(=O)OCc1ccccc1)C(=O)Oc1cc2oc(=O)cc(-c3ccccc3)c2cc1Cl (stereo not given) | inconclusive: 29.1 µM [activator, single point] | 
14 | O=C(NCCc1csc(-c2cccnc2)n1)c1ccc(Cl)cc1 | inconclusive: 9.2 µM [activator, single point] | 
15 | Cc1ccnc(NC(=O)c2ccc(S(=O)(=O)NCc3ccco3)cc2)c1 | inconclusive: 29.1 µM [activator, single point] | 
16 | CN1C/C(=C\c2ccc(N3CCOCC3)cc2)C(=O)/C(=C/c2ccc(N3CCOCC3)cc2)C1 | inconclusive: 18.4 µM [activator, single point] | 
17 | CCCN1CCN(C(=O)c2ccc(-c3ccc([N+](=O)[O-])cc3)o2)CC1 | inconclusive: 20.6 µM [activator, single point] | 
18 | CCCCCCC(=O)N(O)C1CC(=O)N(c2ccc(Cl)cc2)C1=O (stereo not given) | active: 18.4 µM | 
19 | Cc1cccc(CS(=O)(=O)c2ncc(Cl)c(C(=O)Nc3ccc(F)cc3)n2)c1 | inconclusive: 3.66 µM [activator, single point] | 
20 | CSc1nnc(N2C(=O)C(O)=C(C(=O)c3ccco3)C2c2ccccc2F)s1 (stereo not given) | inconclusive: 9.2 µM [activator, partial curve, poor fit] | 

Look-ups from the results shown.
Value for CN1C/C(=C\c2ccc(N3CCOCC3)cc2)C(=O)/C(=C/c2ccc(N3CCOCC3)cc2)C1 under Potency: inconclusive: 18.4 µM [activator, single point]
Value for Cc1ccc(Cn2nc(C)c(NC(=O)c3cc(C)no3)c2C)cc1 under re-replication activation: inactive: 3.24%
